The list is a part of this screen's results and no random one: it is rich in T/C values a quarter to a half above the control, in often repeated tests (any T/C) and in doses without a T/C. Other doses and runs of a compound stand elsewhere. T/C gives the treated animals as a percentage of the vehicle group. Some doses have a count of surviving animals in place of a T/C: the source holds a T/C of zero for them, seemingly a mark for toxic or unscored doses. Some survivor counts are full or nearly so, which does not show that the dose was tolerated: survival well below the control is almost never listed, so the zero probably covers shortened survival too. Survivors were counted at the toxicity check, usually on the fifth day, unless a day is given; later deaths do not show. Schedule codes are those of the source, taken here to give the interval after Q, in days (D) or hours (H), and the number of doses after X. Some schedules carry Z or #; the key to these is not given. For survival time, the PubChem record calls one and a half times the control and up active, and a quarter to a half above the control has no call in these data; cut-offs in other NCI protocols can differ. Some entries hold several experiments; the results are listed from low to high. Some T/C values are followed by the survivors on the day toxicity was checked, most often the fifth; where none is given, no animal had died by that day.
System: L1210 leukemia ip in BDF1 mice, survival T/C
Assay: NCI In Vivo Anticancer Drug Screen. Data for tumor model L1210 Leukemia (intraperitoneal) in B6D2F1 (BDF1) mice
Settings: T/C endpoint: mean survival time, higher T/C = longer survival
[1] = dose: 400.0 mg/kg/injection, schedule: Q01DX001 (ip), vehicle: carboxymethylcellulose (CMC)
[2] = dose: 400.0 mg/kg/injection, schedule: Q01DX009 (ip), vehicle: saline with Tween-80
[3] = dose: 400.0 mg/kg/injection, schedule: Q01DX001 (ip), vehicle: saline
[4] = dose: 400.0 mg/kg/injection, schedule: Q04DX002 (ip), vehicle: saline
[5] = dose: 100.0 mg/kg/injection, schedule: Q04DX003 (ip), vehicle: saline
[6] = dose: 200.0 mg/kg/injection, schedule: Q04DX003 (ip), vehicle: saline
[7] = dose: 400.0 mg/kg/injection, schedule: Q04DX003 (ip), vehicle: saline

CS(=O)(=O)Nc1ccc(Nc2c3ccccc3nc3ccccc23)cc1
T/C (dose: 10.0 mg/kg/injection, schedule: Q01DX009 (ip), vehicle: saline): 133 % of control | T/C (dose: 40.0 mg/kg/injection, schedule: Q01DX009 (sc), vehicle: saline): 130 % of control | survivor count (dose: 78.0 mg/kg/injection, schedule: Q01DX009 (ip), vehicle: carboxymethylcellulose (CMC)): 0 of 6 | survivor count (dose: 80.0 mg/kg/injection, schedule: Q01DX009 (ip), vehicle: saline): 6 of 6 | T/C (dose: 80.0 mg/kg/injection, schedule: Q01DX009 (sc), vehicle: saline): 126 % of control | survivor count (dose: 160.0 mg/kg/injection, schedule: Q01DX009 (ip), vehicle: saline): 6 of 6 | T/C (dose: 177.0 mg/kg/injection, schedule: Q01DX001 (ip), vehicle: carboxymethylcellulose (CMC)): 145 % of control | survivor count (dose: 264.0 mg/kg/injection, schedule: Q01DX009 (ip), vehicle: carboxymethylcellulose (CMC)): 6 of 6 | T/C (dose: 365.0 mg/kg/injection, schedule: Q04DX003 (ip), vehicle: Klucel (hydroxypropylcellulose) (HPC)): 136 % of control | T/C [1]: 137 % of control | survivor count (dose: 400.0 mg/kg/injection, schedule: Q01DX009 (ip), vehicle: carboxymethylcellulose (CMC)): 6 of 6

CCCCCCCCC(C)NCCOC(=O)c1ccc([N+](=O)[O-])cc1 (stereo not drawn)
survivor count (dose: 300.0 mg/kg/injection, schedule: Q01DX001 (ip), vehicle: other): 1 of 6

CO[C@@H]1[C@@H](OC2OC(C)C(OC3CC(C)(O)C(OC(=O)CC(C)C)C(C)O3)C(N(C)C)C2O)[C@@H](CC=O)C[C@@H](C)C(=O)/C=C/C2O[C@H]2C[C@@H](C)OC(=O)C[C@H]1OC(C)=O (stereo partly drawn)
survivor count (dose: 50.0 mg/kg/injection, schedule: Q#A X030 (ip), vehicle: water): 6 of 6 | survivor count (dose: 400.0 mg/kg/injection, schedule: Q01DX015 (ip), vehicle: water): 6 of 6 | survivor count (dose: 600.0 mg/kg/injection, schedule: Q01DX015 (ip), vehicle: water): 0 of 6 | survivor count (dose: 1000.0 mg/kg/injection, schedule: Q01DX015 (oral), vehicle: water): 6 of 6 | survivor count (dose: 1500.0 mg/kg/injection, schedule: Q01DX015 (oral), vehicle: water): 6 of 6

O=S1(=O)CCCO1
survivor count (dose: 400.0 mg/kg/injection, schedule: Q01DX009 (ip), vehicle: other): 0 of 6

CC[n+]1ccc(Nc2ccc(NC(=O)c3ccc([N+](=O)[O-])cc3)cc2)cc1
survivor count (dose: 200.0 mg/kg/injection, schedule: Q01DX009 (ip), vehicle: saline with Tween-80): 6 of 6 | survivor count [2]: 0 of 6

CC1CCCC[N-]1.CC1CCCC[N-]1.CC1CCCC[N-]1.CC1CCCC[N-]1.N#CS.[Zn+2] (stereo not drawn)
survivor count [3]: 0 of 4

CCCNC(C)(C)C(SSSC(c1ccc(C(F)(F)F)cc1)C(C)(C)NCCC)c1ccc(C(F)(F)F)cc1 (stereo not drawn)
survivor count [2]: 2 of 6

CN(C)C=Nc1c2c(C#N)cn(C3OC(CO)C(O)C3O)c2nc[n+]1[O-] (stereo not drawn)
survivor count (dose: 100.0 mg/kg/injection, schedule: Q01DX005 (ip), vehicle: saline): 6 of 6 | survivor count (dose: 200.0 mg/kg/injection, schedule: Q01DX005 (ip), vehicle: saline): 5 of 6

CC1(C)C2CCC1(CS(=O)(=O)Cl)C(=O)C2 (stereo not drawn)
survivor count [1]: 2 of 4

CCCCCCOc1ccc(CC(N)C(=O)O)cc1N(CCCl)CCCl (stereo not drawn)
T/C (dose: 3.7 mg/kg/injection, schedule: Q01DX009 (ip), vehicle: carboxymethylcellulose (CMC)): 129 % of control | T/C (dose: 5.6 mg/kg/injection, schedule: Q01DX009 (ip), vehicle: carboxymethylcellulose (CMC)): 146 % of control [5 of 6 alive] | T/C (dose: 6.6 mg/kg/injection, schedule: Q01DX009 (ip), vehicle: carboxymethylcellulose (CMC)): 127 % of control | T/C (dose: 8.5 mg/kg/injection, schedule: Q01DX009 (ip), vehicle: carboxymethylcellulose (CMC)): 132 and 147 % of control | T/C (dose: 10.0 mg/kg/injection, schedule: Q01DX009 (ip), vehicle: carboxymethylcellulose (CMC)): 127 % of control | T/C (dose: 13.0 mg/kg/injection, schedule: Q01DX009 (ip), vehicle: carboxymethylcellulose (CMC)): 143 % of control | T/C (dose: 15.0 mg/kg/injection, schedule: Q01DX001 (ip), vehicle: carboxymethylcellulose (CMC)): 136 % of control | T/C (dose: 20.0 mg/kg/injection, schedule: Q01DX009 (ip), vehicle: carboxymethylcellulose (CMC)): 132 % of control | T/C (dose: 30.0 mg/kg/injection, schedule: Q01DX001 (ip), vehicle: Klucel (hydroxypropylcellulose) (HPC)): 142 % of control | T/C (dose: 30.0 mg/kg/injection, schedule: Q01DX001 (ip), vehicle: carboxymethylcellulose (CMC)): 126 % of control [4 of 6 alive] | survivor count (dose: 30.0 mg/kg/injection, schedule: Q01DX009 (ip), vehicle: carboxymethylcellulose (CMC)): 3 of 6 | T/C (dose: 45.0 mg/kg/injection, schedule: Q01DX001 (ip), vehicle: Klucel (hydroxypropylcellulose) (HPC)): 138 % of control [4 of 5 alive] | survivor count (dose: 60.0 mg/kg/injection, schedule: Q01DX001 (ip), vehicle: carboxymethylcellulose (CMC)): 0 of 6 | T/C (dose: 68.0 mg/kg/injection, schedule: Q01DX001 (ip), vehicle: Klucel (hydroxypropylcellulose) (HPC)): 132 % of control | survivor count (dose: 75.0 mg/kg/injection, schedule: Q01DX001 (ip), vehicle: carboxymethylcellulose (CMC)): 1 of 6 | survivor count (dose: 150.0 mg/kg/injection, schedule: Q01DX001 (ip), vehicle: carboxymethylcellulose (CMC)): 0 of 6 | survivor count (dose: 300.0 mg/kg/injection, schedule: Q01DX001 (ip), vehicle: carboxymethylcellulose (CMC)): 0 of 6

O=C1CCCC/C1=N/Nc1ccccc1
survivor count (dose: 100.0 mg/kg/injection, schedule: Q04DX003 (ip), vehicle: saline with Tween-80): 0 of 6 | survivor count (dose: 200.0 mg/kg/injection, schedule: Q04DX003 (ip), vehicle: saline with Tween-80): 0 of 6 | survivor count (dose: 400.0 mg/kg/injection, schedule: Q04DX003 (ip), vehicle: saline with Tween-80): 0 of 6

O=CC(CCN1CCCC1)(CCN1CCCC1)c1cccc2ccccc12
survivor count (dose: 100.0 mg/kg/injection, schedule: Q01DX009 (ip), vehicle: saline): 1 of 6 | survivor count (dose: 200.0 mg/kg/injection, schedule: Q01DX009 (ip), vehicle: saline): 0 of 6 | survivor count (dose: 400.0 mg/kg/injection, schedule: Q01DX009 (ip), vehicle: saline): 0 of 6

CC(O)C[As](=O)(O)c1ccccc1 (stereo not drawn)
survivor count (dose: 50.0 mg/kg/injection, schedule: Q04DX002 (ip), vehicle: saline): 2 of 3 | survivor count (dose: 100.0 mg/kg/injection, schedule: Q04DX002 (ip), vehicle: saline): 0 of 3 | survivor count (dose: 200.0 mg/kg/injection, schedule: Q04DX002 (ip), vehicle: saline): 0 of 3 | survivor count [4]: 0 of 3

CNCC1C=CCCC1 (stereo not drawn)
survivor count [4]: 2 of 3

Nc1ncc(CNc2ccc(C(=O)O)cc2)c(N)n1
survivor count [3]: 2 of 4

O=C(CC(=O)C(F)(F)C(F)(F)C(F)(F)F)C(F)(F)F
survivor count (dose: 50.0 mg/kg/injection, schedule: Q01DX009 (ip), vehicle: saline): 0 of 6 | survivor count [5]: 0 of 6 | survivor count [6]: 0 of 6 | survivor count [7]: 0 of 6

CC(=O)Oc1c(C2CCCCC2)cc([N+](=O)[O-])cc1[N+](=O)[O-]
survivor count (dose: 400.0 mg/kg/injection, schedule: Q04DX003 (ip), vehicle: Klucel (hydroxypropylcellulose) (HPC)): 2 of 6

CC(/C=C(\C)N1CCCC1)=[N+]1CCCC1
survivor count (dose: 3.12 mg/kg/injection, schedule: Q01DX009 (ip), vehicle: saline): 3 of 6 | survivor count (dose: 6.25 mg/kg/injection, schedule: Q04DX003 (ip), vehicle: saline): 2 of 6 | survivor count (dose: 12.5 mg/kg/injection, schedule: Q04DX003 (ip), vehicle: saline): 0 of 6 | survivor count (dose: 25.0 mg/kg/injection, schedule: Q04DX003 (ip), vehicle: saline): 0 of 6 | survivor count (dose: 50.0 mg/kg/injection, schedule: Q04DX003 (ip), vehicle: saline): 1 of 6 | survivor count [5]: 0 of 6 | survivor count [6]: 0 of 6 | survivor count [7]: 0 of 6

CCOC(=O)C1CSCN1 (stereo not drawn)
survivor count [7]: 1 of 6

Reference: PubChem BioAssay AID248 (DTP/NCI, 2004)
